Test [1] deals with Mod5 (BiFC fusions Mod5-VN and Mod5-VC) (yeast) (UniProt P07884). Kind of test: split reporter; BiFC (VN173 + VC155), both fusions co-overexpressed in 74D-694 [PIN+] yeast cells with 2% Gal, up to 48 h.
For test [2] the target is unchanged. Briefly: split reporter; BiFC (VN173 + VC155), both fusions co-overexpressed in 74D-694 [pin-] yeast cells with 2% Gal, up to 48 h.

Results are given in words; binding and its absence hold for the method and conditions named. Binding seen in cells or lysates may run through a third protein. Some binding calls cover weakened binding; strength is not graded here. Sequences can lack the tags named with a protein.

B1: Mod5 (BiFC fusions Mod5-VN and Mod5-VC) (protein, UniProt P07884 1-428)
chain: MLKGPLKGCLNMSKKVIVIAGTTGVGKSQLSIQLAQKFNGEVINSDSMQVYKDIPIITNKHPLQEREGIPHHVMNHVDWSEEYYSHRFETECMNAIEDIHRRGKIPIVVGGTHYYLQTLFNKRVDTKSSERKLTRKQLDILESTDPDVIYNTLVKCDPDIATKYHPNDYRRVQRMLEIYYKTGKKPSETFNEQKITLKFDTLFLWLYSKPEPLFQRLDDRVDDMLERGALQEIKQLYEYYSQNKFTPEQCENGVWQVIGFKEFLPWLTGKTDDNTVKLEDCIERMKTRTRQYAKRQVKWIKKMLIPDIKGDIYLLDATDLSQWDTNASQRAIAISNDFISNRPIKQERAPKALEELLSKGETTMKKLDDWTHYTCNVCRNADGKNVVAIGEKYWKIHLGSRRHKSNLKRNTRQADFEKWKINKKETVE
In the case of B1, the binding entry was “binds” in test [1] and “no binding (condition: in [pin-] cells)” in test [2].

(Values after paper PMC4287349.)
